Measured values reported in paper PMC9704079, “Enhancement of the anticancer effect of atorvastatin-loaded nanoemulsions by improving oral absorption via multivalent intestinal transporter-targeting lipids” (Drug Delivery, 2022).
≈ marks a conversion by molar mass, not a printed value.

The chains behind the UniProt entries cited, without tags or fusion partners.
UniProt P08183, whole entry: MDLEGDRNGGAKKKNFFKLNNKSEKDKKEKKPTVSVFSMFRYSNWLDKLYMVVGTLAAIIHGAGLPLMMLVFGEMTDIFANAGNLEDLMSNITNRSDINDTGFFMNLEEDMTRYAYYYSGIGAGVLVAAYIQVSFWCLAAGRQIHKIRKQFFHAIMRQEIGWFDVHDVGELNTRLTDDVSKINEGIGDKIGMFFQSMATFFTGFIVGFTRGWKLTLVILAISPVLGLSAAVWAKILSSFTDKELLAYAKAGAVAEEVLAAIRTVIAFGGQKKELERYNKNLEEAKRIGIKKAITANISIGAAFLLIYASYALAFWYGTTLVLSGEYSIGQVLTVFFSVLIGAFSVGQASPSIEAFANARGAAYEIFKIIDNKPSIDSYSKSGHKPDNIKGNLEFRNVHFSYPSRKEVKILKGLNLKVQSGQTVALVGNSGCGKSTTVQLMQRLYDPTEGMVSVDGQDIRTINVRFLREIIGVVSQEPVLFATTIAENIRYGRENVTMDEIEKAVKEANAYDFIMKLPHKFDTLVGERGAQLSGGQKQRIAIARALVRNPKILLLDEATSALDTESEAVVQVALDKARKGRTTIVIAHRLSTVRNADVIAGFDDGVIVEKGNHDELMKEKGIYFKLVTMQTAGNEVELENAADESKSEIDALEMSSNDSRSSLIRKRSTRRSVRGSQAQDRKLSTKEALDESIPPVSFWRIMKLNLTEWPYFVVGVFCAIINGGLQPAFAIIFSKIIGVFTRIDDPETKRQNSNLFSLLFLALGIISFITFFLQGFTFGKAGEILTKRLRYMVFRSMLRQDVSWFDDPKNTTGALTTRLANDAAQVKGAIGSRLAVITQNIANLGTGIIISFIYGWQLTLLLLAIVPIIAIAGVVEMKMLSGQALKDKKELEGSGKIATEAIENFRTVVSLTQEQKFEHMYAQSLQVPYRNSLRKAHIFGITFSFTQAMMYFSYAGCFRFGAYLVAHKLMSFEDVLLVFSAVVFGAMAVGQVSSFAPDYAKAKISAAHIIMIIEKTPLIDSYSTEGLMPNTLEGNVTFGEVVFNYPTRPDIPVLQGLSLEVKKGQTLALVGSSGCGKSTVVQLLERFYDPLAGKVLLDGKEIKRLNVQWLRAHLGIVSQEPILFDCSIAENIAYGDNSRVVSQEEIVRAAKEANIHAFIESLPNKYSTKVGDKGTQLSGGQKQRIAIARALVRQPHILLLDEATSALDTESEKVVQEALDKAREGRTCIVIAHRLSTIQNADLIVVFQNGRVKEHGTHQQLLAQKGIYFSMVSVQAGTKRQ

Columns and labels:
[1] = In vivo oral absorption (pharmacokinetics) in rats; settings: 40 mg/kg ATV, mean ± SD
[2] = biological target: T1, P-gp (Homo sapiens, UniProt P08183); experiment: P-gp efflux: net apparent permeability ratio with or without Cys A; format: in vitro ADME; settings: from NAPR values
T1 construct: a Caco-2/HT-29 MTX-E12 cell monolayer was prepared as described above; endogenous in cells; host or cells: Caco-2/HT-29 MTX-E12 co-culture monolayer

[3] = test system: human ASBT gene-transfected MDCK cells; experiment: Confocal cellular uptake in ASBT-transfected or non-transfected MDCK cells with or without SMVT inhibitor; format: cell-based, canine; settings: 1 h, equivalent to 100 µg/mL ATV
Method: After DOCA-TAP and/or Biotinyl PE had been anchored onto the NEs, the enhancement of intestinal permeability of ATV from the ATV-NEs (via interactions with bile acid transporters and multivitamin transporters) was evaluated using human ASBT gene-transfected Mardin–Darby canine kidney (MDCK) cells (ATCC® CCL-34™) in the presence or absence of SMVT inhibitor (i.e., PA). Briefly, MDCK cells were seeded at a density of 1 × 10^4 cells/coverslip and then transfected with the human ASBT gene (SLC10A2 human cDNA open reading frame [ORF] clone; OriGene Technologies, Inc., Rockville, MD, USA) by using Lipofectamine 2000® and P300™ (Thermo Fisher Scientific). After the formation of a confluent monolayer, the cells were treated with 100 µL of coumarin 6 and ATV dispersed in water or 0.5% DMSO, or coumarin 6-coloaded ATV-NE#1, ATV-NE#3, ATV-NE#4, ATV-NE#5, and ATV-NE#6 at a concentration equivalent to 100 µg/mL ATV, in the absence or presence of PA. After incubation for 1 h, the cells were washed three times with ice-cold PBS (pH 7.4), then fixed with 4% formaldehyde and blocking buffer (0.3% Triton X-100 and 10% normal goat serum in PBS, pH 7.4). Next, they were incubated overnight with anti-human ASBT antibody (1:500) and stained with 10 µg/mL Alexa Fluor-546-labeled secondary antibody for 1 h. […] Fluorescence images were examined by confocal laser scanning microscopy.

[4] = in vitro; format: cell-based, murine; settings: mouse
Method: (§1) To evaluate the cytotoxic effects of ATV-NEs, 4T1 (murine stage IV breast cancer) or MCF-7 (human breast adenocarcinoma) cells were seeded in 96-well plates at a density of 1 × 10^4 cells/well in 100 µL of Roswell Park Memorial Institute medium or Dulbecco’s Modified Eagle’s Medium supplemented with 10% FBS, 1% penicillin/streptomycin, and 1% non-essential amino acids. […]. After incubation for 1 h, the absorbance at 450 nm was measured and the percentage of viable cells was calculated by comparison with the absorbance of untreated cells (100% viability).

[5] = in vitro; format: cell-based; settings: human
Method: as §1

[6] = in vivo; settings: Sprague-Dawley, rat, plasma
[7] = test system: 4T1 (murine stage IV breast cancer) cells; experiment: cells; format: cell-based; settings: Mus musculus; 4T1 cells, treatment for 24 h
Method: as §1

With CC(C)c1c(C(=O)Nc2ccccc2)c(-c2ccccc2)c(-c2ccc(F)cc2)n1CC[C@@H](O)C[C@@H](O)CC(=O)O [ATV in 10% DMF, Atorvastatin] the Tmax ([1]; n = 4) was 4.00 ± 0.00 h, the AUCinf ([1]; n = 4, 40 mg/kg) was 283 ± 32.5 ng·h/mL and the AUClast ([1]; n = 4, 40 mg/kg) was 256 ± 49.9 ng·h/mL. For the same compound, the Cmax ([1]; n = 4, 40 mg/kg) was 39.2 ± 3.95 ng/mL.
For CC(C)c1c(C(=O)Nc2ccccc2)c(-c2ccccc2)c(-c2ccc(F)cc2)n1CC[C@@H](O)C[C@@H](O)CC(=O)O [ATV, Atorvastatin], the “P-gp substrate status (in words)” value [2] was “substrate of P-gp”.
In the case of CC(C)c1c(C(=O)Nc2ccccc2)c(-c2ccccc2)c(-c2ccc(F)cc2)n1CC[C@@H](O)C[C@@H](O)CC(=O)O [ATV in water, Atorvastatin], the “Cellular uptake of coumarin 6 by ASBT-expressing or non-transfected MDCK cells with or without SMVT inhibitor PA (confocal, in words)” value [3] is reported as “did not reveal any variation in cellular uptake”, the viability at 24 h, 200 µg/mL [4] is reported as 80.5% and the viability at 24 h, 200 µg/mL [5] is reported as 74.8%. It also gave an AUC(0-inf) ([6]; po, 40 mg/kg) of 149 ± 13.5 ng·h/mL, a Cmax ([6]; po, 40 mg/kg) of 28.1 ± 2.94 ng/mL and a Tmax ([6]; po, 40 mg/kg) of 4 h. It also gave an AUClast ([1]; n = 4, 40 mg/kg) of 117 ± 7.03 ng·h/mL.
In the case of CC(C)c1c(C(=O)Nc2ccccc2)c(-c2ccccc2)c(-c2ccc(F)cc2)n1CC[C@@H](O)C[C@@H](O)CC(=O)O [ATV-IP, Atorvastatin], the AUC(0-inf) ([6]; ip, 2 mg/kg) is reported as 220 ± 4.94 ng·h/mL, the AUC(0-t) ([6]; ip, 2 mg/kg) is reported as 211 ± 4.84 ng·h/mL and the Cmax ([6]; ip, 2 mg/kg) is reported as 82.5 ± 2.28 ng/mL. It also gave a Tmax ([6]; ip, 2 mg/kg) of 0.5 h.
With CC(C)c1c(C(=O)Nc2ccccc2)c(-c2ccccc2)c(-c2ccc(F)cc2)n1CC[C@@H](O)C[C@@H](O)CC(=O)O [ATV in 0.5% DMSO, Atorvastatin] the “Cellular uptake of coumarin 6 by ASBT-expressing or non-transfected MDCK cells with or without SMVT inhibitor PA (confocal, in words)” value [3] was “did not reveal any variation in cellular uptake” and the IC50 [7] was 256 ± 2.03 µg/mL (≈ 458 µM).
